Patent publication US9096835B2, “DNA polymerase” (Medical Research Council, priority 2003, dated 2015)
Some results were stated once for a whole list of compounds, not compound by compound.

B1: M1: Taq mutant G84A, D144G, K314R, E520G, F598L, A608V, E742G; SEQ ID NO: 1 (protein)
chain: MRGMLPLFEPKGRVLLVDGHHLAYRTFHALKGLTTSRGEPVQAVYGFAKSLLKALKEDGDAVIVVFDAKAPSFRHEAYGGYKAARAPTPEDFPRQLALIKELVDLLGLARLEVPGYEADDVLASLAKKAEKEGYEVRILTADKGLYQLLSDRIHVLHPEGYLITPAWLWEKYGLRPDQWADYRALTGDESDNLPGVKGIGEKTARKLLEEWGSLEALLKNLDRLKPAIREKILAHMDDLKLSWDLAKVRTDLPLEVDFAKRREPDRERLRAFLERLEFGSLLHEFGLLESPKALEEAPWPPPEGAFVGFVLSRREPMWADLLALAAAAGGRVHRAPEPYKALRDLKEARGLLAKDLSVLALREGLGLPPGDDPMLLAYLLDPSNTTPEGVARRYGGEWTEEAGERAALSERLFANLWGRLEGEERLLWLYREVERPLSAVLAHMEATGVRLDVAYLRALSLEVAEEIARLEAEVFRLAGHPFNLNSRDQLERVLFDELGLPAIGKTEKTGKRSTSAAVLGALREAHPIVEKILQYRELTKLKSTYIDPLPDLIHPRTGRLHTRFNQTATATGRLSSSDPNLQNIPVRTPLGQRIRRAFIAEEGWLLVVLDYSQIELRVLAHLSGDENLIRVFQEGRDIHTETASWMFGVPREAVDPLMRRAAKTINFGVLYGMSAHRLSQELAIPYEEAQAFIERYFQSFPKVRAWIEKTLEEGRRRGYVETLFGRRRYVPDLEARVKSVRGAAERMAFNMPVQGTAADLMKLAMVKLFPRLEEMGARMLLQVHDELVLEAPKERAEAVARLAKEVMEGVYPLAVPLEVEVGIGEDWLSAKE
modifications: Mutant Thermus aquaticus DNA polymerase
B2: M4: Taq mutant D58G, R74P, A109T, L245R, R343G, G370D, E520G, N583S, E694K, A743P; SEQ ID NO 2 (protein)
chain: MRGMLPLYEPKGRVLLVDGHHLAYRTFHALKGLTTSRGEPVQAVYGFAKSLLKALKEGGDAVIVVFDAKAPSFPHEAYGGYKAGRAPTPEDFPRQLALIKELVDLLGLTRLEVPGYEADDVLASLAKKAEKEGYEVRILTADKDLYQLLSDRIHVLHPEGYLITPAWLWEKYGLRPDQWADYRALTGDESDNLPGVKGIGEKTARKLLEEWGSLEALLKNLDRLKPAIREKILAHMDDLKLSWDRAKVRTDLPLEVDFAKRREPDRERLRAFLERLEFGSLLHEFGLLESPKALEEAPWPPPEGAFVGFVLSRKEPMWADLLALAAARGGRVHRAPEPYKALGDLKEARGLLAKDLSVLALREGLGLPPDDDPMLLAYLLDPSNTTPEGVARRYGGEWTEEAGERAALSERLFANLWGRLEGEERLLWLYREVERPLSAVLAHMEATGVRLDVAYLRALSLEVAEEIARLEAEVFRLAGHPFNLNSRDQLERVLFDELGLPAIGKTEKTGKRSTSAAVLGALREAHPIVEKILQYRELTKLKSTYIDPLPDLIHPRTGRLHTRFNQTATATGRLSSSDPNLQSIPVRTPLGQRIRRAFIAEEGWLLVALDYSQIELRVLAHLSGDENLIRVFQEGRDIHTETASWMFGVPREAVDPLMRRAAKTINFGVLYGMSAHRLSQELAIPYEEAQAFIKRYFQSFPKVRAWIEKTLEEGRRRGYVETLFGRRRYVPDLEARVKSVREPAERMAFNMPVQGTAADLMKLAMVKLFPRLEEMGARMLLQVHDELVLEAPKERAEAVARLAKEVMEGVYPLAVPLEVEVGIGEDWLSAKE
modifications: Mutant Thermus aquaticus DNA polymerase

Experiments:
[1] = system: primer-template DNA substrates; test: Processivity primer extension assay with and without trap DNA; type: biochemical; settings: positions 2 through 5
Procedure: Processivity was measured using a primer extension assay the presence and absence of trap DNA. Termination probabilities were calculated according to the method of Kokoska et al.
Oligonucleotide primer 32 (5′-GCGGTGTAGAGACGAGTGCGGAG-3′) (SEQ ID NO: 117) was ^32P-labelled and annealed to the template 33 (5′-CTCTCACAAGCAGCCAGGCAAGCTCCGCACTCGTCTCTACACCGCTCCGC-3′ (SEQ ID NO: 118)) (at a primer/template ratio of molar 1/1.5). wtTaq (0.0025 nM; 0.025 nM; 0.25 nM), M1(0.05 nM; 0.5 nM; 5 nM), and M4 (0.05 nM; 0.5 nM; 5 nM) were preincubated with the primer-template DNA substrates (10 nM) in 10 mM Tris-HCl at pH 9.0, 5 mM MgCl2, 50 mM KCl, 0.1% Triton X 100 at 25° C. for 15 min. […] Gel band intensities were calculated using a Phosphoimager and ImageQuant (both Molecular Dynamics) software. Percentage of polymerase molecules, which extended primers to the end of the template was calculated using the formula: In×100%/(I1+I2+ . . . +In), where In is the intensity of the band at position 22 or 23; I1, I2 . . . is the intensity of the band at position 1, 2 . . . . Termination probabilities (τ) were calculated according to the method of Kokoska et al^1, whereby t at a particular template position was calculated as the intensity of the band at this position divided by the sum of the intensity of this band and the band intensities of all longer products.

[2] = system: template containing a cis-syn cyclobutane thymine-thymine dimer (CPD); test: Translesion replication assay (primer extension), CPD; type: biochemical; settings: estimate; compared with literature data on the same template
Procedure: Template primers 22 (undamaged) or 23 (containing a synthetic abasic site) were synthesized by Lofstrand Laboratories (Gaithersburg, Md.). Template primer 24 (containing a single cis-syn thymine dimer), was synthesized as described (34). Primer 25 was ^32P-labeled and annealed to one of the three templates 22, 23, 24 (at a primer template ratio of molar 1:1.5) and extended in 40 mM Tris.HCl at pH 8.0, 5 mM MgCl2, 100 μM of each dNTP, 10 mM DTT, 250 μg/ml BSA, 2.5% glycerol, 10 nM primer-template DNA and 0.1 Unit of polymerase at 60° C. for various times.
Primer extension assays were essentially as described in (Ghadessy et al., 2004). Briefly, undamaged oligonucleotides and a 51mer containing a synthetic abasic site were synthesized by Lofstrand Laboratories (Gaithersburg, Md.) using standard techniques and were gel purified prior to use. A 20mer primer (LES—20 P) with the sequence 5′-[…]-3′ (SEQ ID NO: 99) was 5′-labeled with [^32P]ATP (5000 Ci/mmole; 1 Ci=37 GBq) (Pharmacia) using T4 polynucleotide kinase (Invitrogen, Carlsbad Calif.). Radiolabeled primer-template DNAs were prepared by annealing the 5′[^32P] labeled 20mer primer to one of the two following 51mer templates (at a primer template ratio of molar 1:1.5). […]

Molecule | termination probability [1] | trans-lesion synthesis (TLS) efficiency, less efficient than Dpo4 from S. solfataricus [2]
wtTaq: Thermus aquaticus (Taq) wild type DNA polymerase [reference compound] | 15-25% | –
B1 | 15-25% | 2-5 fold
B2 | – | 2-5 fold
